Assay results from PubChem BioAssay AID504834 (National Center for Advancing Translational Sciences (NCATS), 2011).
Among all 320,000 compounds or so, about 22,000 (6.9%) were called active. The inconclusive results got no clear call from the source; some entries with a clear call stand among them for comparison. Calls come from the whole dose curve; as a rule, active = well fitted inhibition curve with a large enough effect; inconclusive = small, poorly fitted or top-dose-only effect, or another doubt; inactive = no such curve, though single readings can be large or run the other way. A potency beside an inconclusive call is a rough fit, not a confirmed value.

test: Primary qHTS for delayed death inhibitors of the malarial parasite plastid, 96 hour incubation; conditions: P. falciparum luciferase reporter growth; series mostly up to 28.7 µM; activity change, negative = inhibition: at the top concentration
Summary of the method: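 Readout is luminescence from an integrated firefly luciferase in P. falciparum. Red cells, 2% hematocrit and 0.05% parasitemia final, were cultured with compound through two parasite generations (96 hours) at 37 C, 5% CO2.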
% is set by controls: 0 for no effect and ±100 for the full control effect; potency is the fitted concentration of half-maximal effect.

Compound | Potency | activity change, negative = inhibition
CC(=O)NC1=NC(=O)CS1 | inconclusive: 4.15 µM [inhibitor, partial curve] | 
Cc1cc(C(F)(F)F)c2sc(N)nc2n1 | inconclusive: 18.5 µM [inhibitor, single point] | 
Cc1cc(NCc2ccc3c(c2)OCO3)n2nc(C)nc2n1 | active: 0.37 µM | 
Cc1ccc(O)c(C(=O)c2cc(C#N)c(=O)n(C(C)c3ccccc3)c2)c1 (stereo unspecified) | active: 5.86 µM | 
CC1=[N+]([O-])C(C)(C)C(c2ccc(Br)cc2)=[N+]1[O-] | inconclusive: 11.7 µM [inhibitor, single point] | 
O=C(c1cccnc1)c1cccnc1 | inconclusive: 2.33 µM [inhibitor, single point] | 
CC(C)COC(=O)NCCCOC(=O)Nc1ccccc1 | inconclusive: 18.5 µM [inhibitor, single point] | 
Cc1ccc(-n2ncc3c2CCCC3NC(=O)CCc2c(C)noc2C)cc1C (stereo unspecified) | inconclusive: 10.4 µM [inhibitor, partial curve] | 
CCc1cccc2c(C(=O)CCl)c[nH]c12 | inconclusive: 18.5 µM [inhibitor, single point] | 
COc1ccccc1NS(=O)(=O)c1cc(C(=O)N2CC(C)CC(C)C2)ccc1C (stereo unspecified) | inconclusive: 10.4 µM [inhibitor, single point] | 
COc1ccc(S(=O)(=O)N(C)C2CCN(C)CC2)cc1 | inconclusive: 18.5 µM [inhibitor, single point] | 
Cc1ccc(F)cc1NC(=O)CCC(=O)c1cccs1 |  | inactive: 11.9%
CN1CCN(C2=Cc3cc(Cl)ccc3Sc3cc(F)ccc32)CC1 | inconclusive: 13.1 µM [inhibitor, partial curve, poor fit] | 
Cc1cccc([C@@H]2[C@@H]3C(=O)N(Cc4ccccc4)C(=O)[C@@H]3[C@]3(Cc4ccccc4)C(=O)N(c4cccc(F)c4)C(=O)N23)c1 | inconclusive: 18.5 µM [inhibitor, single point] | 
Cc1cc(C)c(S(=O)(=O)Nc2ccccn2)c(C)c1 |  | inactive: -2.92%
O=C(CSc1nncc2ccccc12)Nc1ccc(C(=O)O)cc1 | inconclusive: 16.5 µM [inhibitor, single point] | 
COC(=O)c1ccc(/C=N/Nc2nc(C)c(C)s2)cc1 | inconclusive: 4.15 µM [inhibitor, partial curve] | 
CC1CCc2c(sc3nc(CN4CCOCC4)nc(NS(=O)(=O)c4cccc([N+](=O)[O-])c4)c23)C1 (stereo unspecified) | active: 13.1 µM | 
O=C(Nc1cccc(F)c1)C1CCN(C(=O)c2ccc(Cl)cc2)CC1 | inconclusive: 11.7 µM [inhibitor, single point] | 
Cc1cc(Cl)ccc1C(=O)C1CCCN(C(=O)c2nonc2C)C1 (stereo unspecified) | inconclusive: 8.28 µM [inhibitor, partial curve, poor fit] | 
O=C(c1ccc(Cl)cc1)N1CCn2c1nc1ccccc12 |  | inactive: 16.2%
Cc1ccc(NC(=O)Cn2ccc([N+](=O)[O-])n2)cc1C | inconclusive: 2.94 µM [inhibitor, single point] | 
[N-]=[N+]=NC[C@H](c1ccccc1)N1CCN(Cc2ccccc2)CCC1=O | inconclusive: 18.5 µM [inhibitor, single point] | 

Compound | Potency | activity change, negative = inhibition
CCOc1ccc(NCc2cccn2-c2nnc(N3CCC(C(=O)NCCCN4CCCCC4C)CC3)s2)cc1 (stereo unspecified) | inconclusive: 1.04 µM [inhibitor, full curve] | 
CC(C)(C)OC(=O)N1CCC(NC(=O)c2nc[nH]c2C(=O)N2CCc3ccccc3C2)CC1 | inconclusive: 10.4 µM [inhibitor, single point] | 
O=C(c1ccc(O)cc1)c1ccc(O)cc1O |  | inactive: 45%
CC1CCc2c(sc(/N=C/c3cccnc3)c2C(N)=O)C1 (stereo unspecified) | inconclusive: 0.294 µM [inhibitor, partial curve, poor fit] | 
CN1CCN(NC(=S)NC2CCCC2)CC1 | inconclusive: 14.7 µM [inhibitor, single point] | 
COC(=O)c1ccc(-n2c(CCC(=O)O)ccc2-c2ccc(C)cc2)cc1 | inconclusive: 4.15 µM [inhibitor, single point] | 
CC1(C)CC(=O)C2=C(C1)OC(N)=C(C#N)C2C#Cc1ccccc1 (stereo unspecified) | inconclusive: 0.165 µM [inhibitor, partial curve, poor fit] | 
Cc1nc(N2CCN(C(=O)c3cccs3)CC2)c2c3c(sc2n1)CCCC3 |  | inactive: 22.5%
CCN1CCN(C(=S)Nc2sc(C)c(-c3ccccc3)c2C(=O)OC)CC1 | inconclusive: 18.5 µM [inhibitor, single point] | 
CSc1ccc(NC(=O)Nc2ccccc2C(N)=O)cc1 |  | inactive: 132%
COc1ccc(C(=O)N2CCc3[nH]nc(-c4ccccc4)c3C2)cc1 |  | inactive: -21.6%
N/C(=N\c1nc2ccccc2o1)NC(=O)c1ccc(Cl)cc1 |  | inactive: -5.54%
C/C(=N\NS(=O)(=O)c1ccc(Br)cc1)c1cccs1 | inconclusive: 13.1 µM [inhibitor, partial curve, poor fit] | 
N#Cc1cc([N+](=O)[O-])ccc1Oc1ccc(-c2nnco2)cc1 | inconclusive: 18.5 µM [inhibitor, partial curve, poor fit] | 
CCc1ccc(NC(=O)c2ccccc2SC)cc1 |  | inactive: 41.9%
CCn1c(C)c(C)c2cc(C(=O)NCCCN3CCCCC3)ccc21 | inconclusive: 1.47 µM [inhibitor, full curve] | 
O=C(O)CC1Oc2ccc(Cl)cc2NC1=O (stereo unspecified) | active: 5.22 µM | 
O=C(O)c1cc(NC(=O)c2cccc(F)c2)cc(NC(=O)c2cccc(F)c2)c1 |  | inactive: 3.88%
NC(=O)C(=O)N/N=C/c1ccc([N+](=O)[O-])o1 | inconclusive: 19 µM [inhibitor, single point] | 
Cc1ccnc2nc(C(=O)OCC(=O)Nc3ccc4c(c3)OC(F)(F)O4)nn12 |  | inactive: 0%
CCCCN1C(=O)CN(CCc2ccccc2)C(=O)C1c1ccc(OC)cc1 (stereo unspecified) | active: 5.22 µM | 
CC1Cc2ccccc2N1C(=O)Cn1cnc2c1c(=O)n(C)c(=O)n2C (stereo unspecified) |  | inactive: 23.5%
O=C(OC(C(=O)NCC1CCCO1)c1ccc(F)cc1)c1cccs1 (stereo unspecified) | inconclusive: 10.4 µM [inhibitor, single point] | 

An excerpt from above in order of length of the SMILES, smallest number first:
Compound | Potency | activity change, negative = inhibition
COc1ccc(C(=O)N2CCc3[nH]nc(-c4ccccc4)c3C2)cc1 |  | inactive: -21.6%
CCN1CCN(C(=S)Nc2sc(C)c(-c3ccccc3)c2C(=O)OC)CC1 | inconclusive: 18.5 µM [inhibitor, single point] | 
CC(C)(C)OC(=O)N1CCC(NC(=O)c2nc[nH]c2C(=O)N2CCc3ccccc3C2)CC1 | inconclusive: 10.4 µM [inhibitor, single point] | 
